In the supplement of paper PMC9433722:
Counter-ions that a name gives are not always drawn. The list shows a part of the results. Single values are uncertain, as repeats are few or missing.

Key:
Saos-2 = assay: cell viability (CCK-8) relative to DMSO control (% of control); higher = less cytotoxic; conditions: 10 µM; 48 h
U2OS = assay: as above; conditions: 10 µM; 48 h

| SMILES | cell viability (Saos-2) | cell viability (U2OS) |
| --- | --- | --- |
| COc1cccc2c1C(=O)c1c(O)c3c(c(O)c1C2=O)C[C@@](O)(C(=O)CO)C[C@@H]3O[C@H]1C[C@H](N)[C@@H](O)[C@H](C)O1 [Epirubicin·HCl] | 29.5 | 28.6 |
| CC[C@H]1OC(=O)[C@H](C)[C@@H](O[C@H]2C[C@@](C)(OC)[C@@H](O)[C@H](C)O2)[C@H](C)[C@@H](O[C@@H]2O[C@H](C)C[C@H](N(C)C)[C@H]2O)[C@](C)(O)C[C@@H](C)C(=O)[C@H](C)[C@@H](O)[C@]1(C)O [Erythromycin] | 103 | 80.8 |
| Nc1nc2[nH]cnc2c(=S)[nH]1 [Thioguanine] | 66 | 54.5 |
| N=C(N)NC(=O)c1nc(Cl)c(N)nc1N [Amiloride . hydrochloride . dihydrate] | 54.8 | 115 |
| NC(=O)N1c2ccccc2C=Cc2ccccc21 [Carbamazepine] | 72.4 | 87.5 |
| Cc1cnc(C(=O)NCCc2ccc(S(=O)(=O)NC(=O)NC3CCCCC3)cc2)cn1 [Glipizide] | 63.3 | 109 |
| Cc1nc2n(c(=O)c1CCN1CCC(c3noc4cc(F)ccc34)CC1)CCCC2O (centres undefined) [Paliperidone] | 107 | 106 |
| Nc1ncn([C@H]2C[C@H](O)[C@@H](CO)O2)c(=O)n1 [Decitabine] | 70.5 | 88.4 |
| O=C(CCCN1CCC(O)(c2ccc(Cl)cc2)CC1)c1ccc(F)cc1 [Haloperidol] | 58.8 | 112 |
| C[C@@H]1C[C@H]2[C@@H]3CCC4=CC(=O)C=C[C@]4(C)[C@@]3(Cl)[C@@H](O)C[C@]2(C)[C@@]1(OC(=O)c1ccco1)C(=O)CCl [Mometasone Furoate] | 115 | 129 |
| C[C@@H](O)[C@H]1C(=O)N2C(C(=O)O)=C(S[C@@H]3CN[C@H](C(=O)N(C)C)C3)[C@H](C)[C@H]12 [Meropenem] | 64.1 | 95.4 |
| CCNC(=O)CCC/C=C\C[C@@H]1[C@@H](/C=C/[C@@H](O)CCc2ccccc2)[C@H](O)C[C@@H]1O [Bimatoprost] | 122 | 106 |
| CN(C)CCOC(c1ccc(Cl)cc1)c1ccccn1 (centres undefined) [Carbinoxamine Maleate] | 116 | 73.9 |
| CC(C)C[C@H](NC(=O)[C@@H](COC(C)(C)C)NC(=O)[C@H](Cc1ccc(O)cc1)NC(=O)[C@H](CO)NC(=O)[C@H](Cc1c[nH]c2ccccc12)NC(=O)[C@H](Cc1cnc[nH]1)NC(=O)[C@@H]1CCC(=O)N1)C(=O)N[C@@H](CCCNC(=N)N)C(=O)N1CCC[C@H]1C(=O)NNC(N)=O [Goserelin Acetate] | 57.8 | 97.3 |
| CC1=C(/C=C/C(C)=C/C=C/C(C)=C/C(=O)O)C(C)(C)CCC1 [Tretinoin] | 94.4 | 87.2 |
| CC[C@H]1OC(=O)[C@H](C)[C@@H](O[C@H]2C[C@@](C)(OC)[C@@H](O)[C@H](C)O2)[C@H](C)[C@@H](O[C@@H]2O[C@H](C)C[C@H](N(C)C)[C@H]2O)[C@](C)(O)C[C@@H](C)CN(C)[C@H](C)[C@@H](O)[C@]1(C)O [Azithromycin] | 67.8 | 102 |
| Oc1ccc(C2CNCCc3c2cc(O)c(O)c3Cl)cc1 (centres undefined) [Fenoldopam Mesylate] | 64.4 | 105 |
| Nc1nc(N)c2nc(-c3ccccc3)c(N)nc2n1 [Triamterene] | 67.5 | 72.1 |
| CN1CCN(C2=Nc3cc(Cl)ccc3Nc3ccccc32)CC1 [Clozapine] | 63.4 | 110 |

| SMILES | cell viability (Saos-2) | cell viability (U2OS) |
| --- | --- | --- |
| Cc1cccn2c(=O)c(-c3nnn[nH]3)cnc12 [Pemirolast Potassium] | 108 | 114 |
| CCOc1nc2cccc(C(=O)O)c2n1Cc1ccc(-c2ccccc2-c2nnn[nH]2)cc1 [Candesartan] | 59.5 | 115 |
| CC1=C(C/C=C(\C)CCC[C@H](C)CCC[C@H](C)CCCC(C)C)C(=O)c2ccccc2C1=O [Phytonadione] | 105 | 105 |
| Cc1cc2c(s1)Nc1ccccc1N=C2N1CCN(C)CC1 [Olanzapine] | 54.4 | 98.7 |
| CC1=Nc2ccc(Cl)cc2S(=O)(=O)N1 [Diazoxide] | 65.6 | 101 |
| CN(N=O)C(=O)N[C@@H](C=O)[C@@H](O)[C@H](O)[C@H](O)CO [Streptozocin] | 102 | 96.9 |
| CC(C)NCC(O)c1ccc(NS(C)(=O)=O)cc1 (centres undefined) [Sotalol·HCl] | 65.1 | 118 |
| CC(=O)OCC(=O)[C@@]12OC(C)(C)O[C@@H]1C[C@H]1[C@@H]3C[C@H](F)C4=CC(=O)C=C[C@]4(C)[C@@]3(F)[C@@H](O)C[C@@]12C [Fluocinonide] | 110 | 101 |
| C[C@]12CCC(=O)C=C1[C@@H]1C[C@@H]1[C@H]1[C@@H]3[C@@H]4C[C@@H]4[C@@]4(CCC(=O)O4)[C@@]3(C)CC[C@@H]12 [Drospirenone] | 118 | 86.6 |
| O=C1Cc2cc(CCN3CCN(c4nsc5ccccc45)CC3)c(Cl)cc2N1 [Ziprasidone Hydrochloride Monohydrate] | 135 | 87.2 |
| COCCOC(=O)C1=C(C)NC(C)=C(C(=O)OC(C)C)C1c1cccc([N+](=O)[O-])c1 (centres undefined) [Nimodipine] | 57 | 116 |
| CN1CCC(=C2c3ccccc3C=Cc3ccccc32)CC1 [Cyproheptadine·HCl Sesquihydrate] | 60.7 | 107 |
| CC1(C)S[C@@H]2[C@H](NC(=O)[C@H](N)c3ccc(O)cc3)C(=O)N2[C@H]1C(=O)O [Amoxicillin] | 65.5 | 107 |
| C=C(CC)C(=O)c1ccc(OCC(=O)O)c(Cl)c1Cl [Ethacrynic Acid] | 53.7 | 114 |
| CC[C@@H](CO)NCCN[C@@H](CC)CO [Ethambutol Dihydrochloride] | 101 | 89.9 |
| S=P(N1CC1)(N1CC1)N1CC1 | 106 | 101 |
| OCCN1CCN(CCCN2c3ccccc3Sc3ccc(Cl)cc32)CC1 [Perphenazine] | 94.9 | 102 |
| CN[C@@H]1[C@H](O[C@H]2[C@H](O[C@H]3[C@H](O)[C@@H](O)[C@H](N=C(N)N)[C@@H](O)[C@@H]3N=C(N)N)O[C@@H](C)[C@]2(O)C=O)O[C@@H](CO)[C@H](O)[C@H]1O [Streptomycin . sulfate] | 68.6 | 112 |
| CC1(C)S[C@@H]2[C@H](NC(=O)COc3ccccc3)C(=O)N2[C@H]1C(=O)O [Penicillin V Potassium] | 65.6 | 103 |

Of the compounds above, these have an NH in an aromatic ring:

| SMILES | cell viability (Saos-2) | cell viability (U2OS) |
| --- | --- | --- |
| Nc1nc2[nH]cnc2c(=S)[nH]1 [Thioguanine] | 66 | 54.5 |
| CC(C)C[C@H](NC(=O)[C@@H](COC(C)(C)C)NC(=O)[C@H](Cc1ccc(O)cc1)NC(=O)[C@H](CO)NC(=O)[C@H](Cc1c[nH]c2ccccc12)NC(=O)[C@H](Cc1cnc[nH]1)NC(=O)[C@@H]1CCC(=O)N1)C(=O)N[C@@H](CCCNC(=N)N)C(=O)N1CCC[C@H]1C(=O)NNC(N)=O [Goserelin Acetate] | 57.8 | 97.3 |
| Cc1cccn2c(=O)c(-c3nnn[nH]3)cnc12 [Pemirolast Potassium] | 108 | 114 |
| CCOc1nc2cccc(C(=O)O)c2n1Cc1ccc(-c2ccccc2-c2nnn[nH]2)cc1 [Candesartan] | 59.5 | 115 |

Further compounds follow:

| SMILES | cell viability (Saos-2) | cell viability (U2OS) |
| --- | --- | --- |
| C=C1/C(=C\C=C2/CCC[C@]3(C)[C@@H]([C@H](C)/C=C/[C@@H](O)C4CC4)CC[C@@H]23)C[C@@H](O)C[C@@H]1O [Calcipotriene] | 65.4 | 109 |
| CN(C)[C@@H]1C(O)=C(C(N)=O)C(=O)[C@@]2(O)C(O)=C3C(=O)c4c(O)cccc4[C@@](C)(O)[C@H]3C[C@@H]12 [Tetracycline] | 63.3 | 106 |
| NC(=O)NO [Hydroxyurea] | 106 | 109 |
| CN1C2CCCC1CC(NC(=O)c1nn(C)c3ccccc13)C2 (centres undefined) [Granisetron·HCl] | 65.3 | 96 |
| O=c1n(CCCN2CCN(c3cccc(Cl)c3)CC2)nc2ccccn12 [Trazodone·HCl] | 97.6 | 85 |
| CCOC(=O)[C@H](CCc1ccccc1)N[C@@H](C)C(=O)N1Cc2cc(OC)c(OC)cc2C[C@H]1C(=O)O [Moexipril·HCl] | 110 | 102 |
| Nc1nc(Cl)nc2c1ncn2[C@H]1C[C@H](O)[C@@H](CO)O1 [Cladribine] | 62.9 | 57.9 |
| O=P(O)(O)C(O)(Cn1ccnc1)P(=O)(O)O [Zoledronic acid] | 56.4 | 110 |
| CN1CC2c3ccccc3Oc3ccc(Cl)cc3C2C1 (centres undefined) [Asenapine Maleate] | 89 | 95.5 |
| CN(C)CC[C@@H](c1ccc(Cl)cc1)c1ccccn1 [Dexchlorpheniramine Maleate] | 112 | 105 |
| CC(C)C(=O)OCC(=O)[C@@]12O[C@H](C3CCCCC3)O[C@@H]1C[C@H]1[C@@H]3CCC4=CC(=O)C=C[C@]4(C)[C@H]3[C@@H](O)C[C@@]12C [Ciclesonide] | 100 | 87.8 |
| Nc1ccc(C(=O)NCC(=O)O)cc1 [Aminohippurate . sodium] | 117 | 83.3 |
| Brc1c(NC2=NCCN2)ccc2nccnc12 [Brimonidine] | 113 | 115 |
| C[C@@H](c1ncncc1F)[C@](O)(Cn1cncn1)c1ccc(F)cc1F [Voriconazole] | 83 | 89.4 |
| Cc1nnc(C(C)C)n1C1C[C@H]2CC[C@@H](C1)N2CC[C@H](NC(=O)C1CCC(F)(F)CC1)c1ccccc1 (stereo in doubt) [Maraviroc] | 105 | 91.8 |
| COc1cc(C(=O)NS(=O)(=O)c2ccccc2C)ccc1Cc1cn(C)c2ccc(NC(=O)OC3CCCC3)cc12 [Zafirlukast] | 67.3 | 103 |
| CCCOc1ccc(C(=O)OCCN(CC)CC)cc1N [Proparacaine·HCl] | 99.2 | 79.5 |
| CC(=O)N(O)CCCCCNC(=O)CCC(=O)N(O)CCCCCNC(=O)CCC(=O)N(O)CCCCCN [Deferoxamine Mesylate] | 91 | 77.7 |
| CC(C)NCC(O)COc1ccc(COCCOC(C)C)cc1 (centres undefined) [Bisoprolol Fumarate] | 116 | 122 |
